Test results from paper PMC11536904.
No constants are given. Whether binding was seen depends on the method and setting. Binding seen in cells or lysates may run through a third protein. These calls come from enrichment with a bait or labelling near it, and not all partners need be listed.

The chains behind the UniProt entries cited, without tags or fusion partners.
UniProt Q9H4A3: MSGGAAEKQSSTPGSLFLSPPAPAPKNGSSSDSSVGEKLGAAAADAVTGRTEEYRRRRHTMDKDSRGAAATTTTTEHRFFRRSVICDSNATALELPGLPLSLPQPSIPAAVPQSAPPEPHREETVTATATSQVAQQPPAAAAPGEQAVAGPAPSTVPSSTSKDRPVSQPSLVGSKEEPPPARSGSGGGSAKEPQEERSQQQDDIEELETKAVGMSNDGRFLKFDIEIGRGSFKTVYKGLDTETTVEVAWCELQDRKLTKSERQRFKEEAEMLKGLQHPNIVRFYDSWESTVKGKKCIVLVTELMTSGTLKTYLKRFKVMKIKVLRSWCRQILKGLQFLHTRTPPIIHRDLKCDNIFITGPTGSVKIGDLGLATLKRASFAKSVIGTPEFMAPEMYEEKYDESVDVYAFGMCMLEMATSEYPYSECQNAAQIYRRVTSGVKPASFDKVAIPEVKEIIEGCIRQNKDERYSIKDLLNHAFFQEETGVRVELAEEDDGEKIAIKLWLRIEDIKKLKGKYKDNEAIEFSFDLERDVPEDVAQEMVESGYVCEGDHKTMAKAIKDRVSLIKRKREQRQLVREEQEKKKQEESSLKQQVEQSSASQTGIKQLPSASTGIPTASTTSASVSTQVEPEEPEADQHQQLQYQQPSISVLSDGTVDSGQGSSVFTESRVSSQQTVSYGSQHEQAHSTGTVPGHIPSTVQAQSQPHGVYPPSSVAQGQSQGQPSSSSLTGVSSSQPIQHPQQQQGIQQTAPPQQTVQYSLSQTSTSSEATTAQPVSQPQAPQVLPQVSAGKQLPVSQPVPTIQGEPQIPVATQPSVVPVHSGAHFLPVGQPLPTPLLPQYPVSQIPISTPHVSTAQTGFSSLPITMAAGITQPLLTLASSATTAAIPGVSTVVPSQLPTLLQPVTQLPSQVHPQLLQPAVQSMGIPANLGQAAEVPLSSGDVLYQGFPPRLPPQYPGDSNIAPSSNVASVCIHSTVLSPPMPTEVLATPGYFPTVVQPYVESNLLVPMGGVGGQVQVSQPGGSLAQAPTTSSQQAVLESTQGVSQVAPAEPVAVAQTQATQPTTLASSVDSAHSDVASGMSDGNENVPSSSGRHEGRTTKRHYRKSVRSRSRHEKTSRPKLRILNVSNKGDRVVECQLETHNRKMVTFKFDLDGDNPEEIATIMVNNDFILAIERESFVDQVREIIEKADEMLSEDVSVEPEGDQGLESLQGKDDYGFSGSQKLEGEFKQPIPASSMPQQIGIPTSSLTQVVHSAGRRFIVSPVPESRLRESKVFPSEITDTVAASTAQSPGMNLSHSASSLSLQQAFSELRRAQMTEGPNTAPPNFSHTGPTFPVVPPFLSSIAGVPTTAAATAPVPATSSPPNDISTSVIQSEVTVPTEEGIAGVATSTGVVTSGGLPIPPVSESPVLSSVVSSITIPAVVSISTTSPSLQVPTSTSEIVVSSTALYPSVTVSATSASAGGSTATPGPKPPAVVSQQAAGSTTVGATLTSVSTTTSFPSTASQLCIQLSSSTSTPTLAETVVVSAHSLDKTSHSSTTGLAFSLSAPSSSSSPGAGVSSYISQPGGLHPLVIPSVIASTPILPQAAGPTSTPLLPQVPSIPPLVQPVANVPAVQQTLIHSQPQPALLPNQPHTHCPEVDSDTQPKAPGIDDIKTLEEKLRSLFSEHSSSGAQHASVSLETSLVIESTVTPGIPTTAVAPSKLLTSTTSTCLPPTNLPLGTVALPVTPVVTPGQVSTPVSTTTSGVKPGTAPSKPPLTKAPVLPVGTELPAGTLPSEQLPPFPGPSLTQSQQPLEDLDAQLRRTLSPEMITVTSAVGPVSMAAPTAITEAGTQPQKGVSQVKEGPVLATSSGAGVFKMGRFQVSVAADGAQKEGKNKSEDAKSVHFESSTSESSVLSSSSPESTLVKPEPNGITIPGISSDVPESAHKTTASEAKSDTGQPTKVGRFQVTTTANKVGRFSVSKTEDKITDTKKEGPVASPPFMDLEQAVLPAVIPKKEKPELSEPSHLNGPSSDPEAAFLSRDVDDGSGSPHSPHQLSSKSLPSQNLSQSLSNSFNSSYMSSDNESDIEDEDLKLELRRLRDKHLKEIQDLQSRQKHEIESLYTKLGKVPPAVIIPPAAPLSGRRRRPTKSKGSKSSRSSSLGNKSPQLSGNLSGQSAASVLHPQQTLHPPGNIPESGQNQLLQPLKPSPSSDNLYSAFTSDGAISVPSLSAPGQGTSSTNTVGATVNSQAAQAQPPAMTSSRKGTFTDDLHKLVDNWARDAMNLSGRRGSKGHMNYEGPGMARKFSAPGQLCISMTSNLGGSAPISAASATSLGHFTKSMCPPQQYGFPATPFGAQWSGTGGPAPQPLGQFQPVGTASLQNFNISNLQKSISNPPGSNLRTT
UniProt Q96GD4: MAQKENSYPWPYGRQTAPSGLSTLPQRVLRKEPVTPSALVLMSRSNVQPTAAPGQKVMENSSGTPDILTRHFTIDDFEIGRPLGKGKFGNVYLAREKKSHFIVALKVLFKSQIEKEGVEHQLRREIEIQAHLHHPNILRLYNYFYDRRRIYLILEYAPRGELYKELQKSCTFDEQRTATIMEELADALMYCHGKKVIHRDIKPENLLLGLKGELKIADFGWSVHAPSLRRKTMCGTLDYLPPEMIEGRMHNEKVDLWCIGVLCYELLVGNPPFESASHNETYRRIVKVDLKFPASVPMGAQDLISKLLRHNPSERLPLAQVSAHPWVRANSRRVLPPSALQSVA

Biological target: T1, Endogenous FOXF1 of human lung endothelial colony-forming cells (human (endogenous in hECFCs)) (UniProt Q12946)
T1 sequence: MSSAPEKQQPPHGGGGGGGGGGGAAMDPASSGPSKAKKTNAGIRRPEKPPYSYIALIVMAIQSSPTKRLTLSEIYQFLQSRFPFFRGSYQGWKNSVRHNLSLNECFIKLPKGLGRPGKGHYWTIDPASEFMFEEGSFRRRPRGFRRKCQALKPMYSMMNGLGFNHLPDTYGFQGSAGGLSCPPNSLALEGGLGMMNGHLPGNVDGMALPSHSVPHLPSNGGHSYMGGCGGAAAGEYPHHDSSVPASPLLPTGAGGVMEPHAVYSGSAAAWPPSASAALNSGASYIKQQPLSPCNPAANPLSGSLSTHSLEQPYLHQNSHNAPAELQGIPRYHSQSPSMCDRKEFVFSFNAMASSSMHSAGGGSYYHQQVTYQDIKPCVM
Assay: affinity purification with mass spectrometry; FOXF1 complexes enriched via immunoprecipitation from hECFCs; associating proteins identified by mass spectrometry (manuscript in preparation)

Substance: WNK lysine deficient protein kinase 1 (from UniProt Q9H4A3 1-2382) (enzyme)
- binding: binds

Substance: aurora kinase B (from UniProt Q96GD4 1-344) (enzyme)
- binding: binds
